# PubChem BioAssay AID504786 | Drosophila RNAi Screening Center – 2011
# Purpose: 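Knock-downs reducing HIF reporter induction by the iron chelator DFO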 (primary screen)
# System: Drosophila S2 cells with a stable HIF luciferase reporter
# Reagents: long dsRNA against Drosophila genes, about 0.2 µg dsRNA per well of a 384-well plate
# Timing: three days of knock-down, then 20 h of DFO before reading
# Treatment: desferrioxamine (DFO) at 100 µM, an iron chelator that mimics hypoxia, for 20 h
# Detection: 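HIF reporter luminescence in cells given 100 µM DFO for 20 h, using the mouse ldh-a hypoxia-response element, scored as per-plate z-scores; higher means greater loss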
# Scale: z-score: higher = stronger loss of HIF reporter signal
# The deposit covers about 21,000 reagents; this is an unselected part of those that have a named target and a result. 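Primary screen; positive scores mean lost reporter signal, so the sign may be inverted from the usual convention.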 Names joined by + are all predicted targets of the reagent. Further read-outs or replicates are left out here.
gene,DRSC id,"z-score, replicate 1","z-score, replicate 2"
Gnf1 (GeneID 40607),DRSC12351,0.3,1.1
Lamtor1 (GeneID 40193),DRSC10183,-0.3,-0.5
CG2528 (GeneID 35435),DRSC03724,-0.2,-0.1
Mical (GeneID 41225),DRSC14349,-0.3,0
Mical (GeneID 41225),DRSC14351,0,-0.3
Mical (GeneID 41225),DRSC15365,-0.4,-0.4
Mical (GeneID 41225),DRSC15366,-0.2,0
Eig71Ei (GeneID 39710),DRSC11156,-0.2,-0.4
CG4270 (GeneID 33408),DRSC00648,-0.3,0
Ogdh (GeneID 39899),DRSC09854,-0.3,-0.1
Ogdh (GeneID 39899),DRSC09855,-0.3,-0.3
CG17300 (GeneID 39489),DRSC10260,-0.3,0.4
CG13690 (GeneID 33213),DRSC00359,-0.3,0.3
CG3124 (GeneID 37688),DRSC04339,1.3,1.4
vlc (GeneID 46078),DRSC04922,-0.1,-0.3
CG13038 (GeneID 50268),DRSC09919,-0.1,0.2
Dhrs4 (GeneID 38598),DRSC09773,-0.1,-0.3
B-H1 (GeneID 32724),DRSC19334,-0.1,-0.2
CG14778 (GeneID 31100),DRSC17953,-0.2,-0.8
CG7135 (GeneID 32793),DRSC20026,-0.3,0.4
Pdp (GeneID 31683),DRSC17825,-0.4,-0.6
L (retired record) (GeneID 44831),DRSC05966,-0.2,0.1
L (retired record) (GeneID 44831),DRSC05967,0.4,0.1
Cpr78E (GeneID 40408),DRSC11807,-0.3,-0.4
Lasp (GeneID 39864),DRSC10379,-0.3,-0.7
CG3708 (GeneID 31039),DRSC18646,-0.3,-0.5
Syx8 (GeneID 39847),DRSC10402,-0.2,-0.5
Dyrk3 (GeneID 3885567),DRSC21055,0.4,-0.3
PAN3 (GeneID 38369),DRSC08190,-0.4,-0.7
Fadd (GeneID 42594),DRSC14122,0.8,0
CG4960 (GeneID 43115),DRSC15684,-0.3,-0.5
CG13392 (GeneID 34157),DRSC02262,-0.2,-0.1
CG1889 + CG43386,DRSC17979,-0.5,-0.8
CG12539 (GeneID 32412),DRSC19470,-0.2,-0.9
CG32027 (retired record) (GeneID 317830),DRSC09571,0,0.2
CG13229 (GeneID 36168),DRSC06349,-0.1,-0.2
jdp (GeneID 43630),DRSC16975,-0.3,-0.1
SMC3 (GeneID 32627),DRSC20227,0.2,0.3
CG3092 (GeneID 37682),DRSC04336,-0.3,-0.1
CG13248 (GeneID 40254),DRSC11696,-0.3,-0.3
asRNA:CR42743 + CG34162,DRSC01190,0.2,0.1
fand (GeneID 36514),DRSC06967,4.1,3.8
ND-23 (GeneID 44207),DRSC15526,-0.1,-0.2
Teh2 (GeneID 38502),DRSC08458,-0.3,-0.6
rpr (GeneID 40015),DRSC11390,-0.4,-0.8
Gasz (GeneID 35795),DRSC06829,-0.3,-0.4
CG6138 (GeneID 34454),DRSC02933,-0.2,0.5
mthl10 (GeneID 38057),DRSC08504,-0.4,-0.7
mthl10 (GeneID 38057),DRSC08505,-0.4,-0.4
CG8818 (GeneID 36375),DRSC07275,-0.3,-0.2
CG14606 (GeneID 40866),DRSC12550,-0.2,0.7
CG14384 (GeneID 41588),DRSC14842,-0.3,0.1
aln (GeneID 2768997),DRSC08240,-0.2,-0.9

Continued; the last 15 above are carried over.
gene,DRSC id,"z-score, replicate 1","z-score, replicate 2"
CG3092 (GeneID 37682),DRSC04336,-0.3,-0.1
CG13248 (GeneID 40254),DRSC11696,-0.3,-0.3
asRNA:CR42743 + CG34162,DRSC01190,0.2,0.1
fand (GeneID 36514),DRSC06967,4.1,3.8
ND-23 (GeneID 44207),DRSC15526,-0.1,-0.2
Teh2 (GeneID 38502),DRSC08458,-0.3,-0.6
rpr (GeneID 40015),DRSC11390,-0.4,-0.8
Gasz (GeneID 35795),DRSC06829,-0.3,-0.4
CG6138 (GeneID 34454),DRSC02933,-0.2,0.5
mthl10 (GeneID 38057),DRSC08504,-0.4,-0.7
mthl10 (GeneID 38057),DRSC08505,-0.4,-0.4
CG8818 (GeneID 36375),DRSC07275,-0.3,-0.2
CG14606 (GeneID 40866),DRSC12550,-0.2,0.7
CG14384 (GeneID 41588),DRSC14842,-0.3,0.1
aln (GeneID 2768997),DRSC08240,-0.2,-0.9
Prosbeta2 (GeneID 39628),DRSC11257,5.8,4.3
CG12902 (GeneID 36092),DRSC06217,-0.3,-0.6
Gbs-70E (GeneID 39588),DRSC11055,-0.1,-0.5
CG13041 (GeneID 39801),DRSC09922,-0.2,-0.8
CG13801 (GeneID 38299),DRSC08335,-0.2,-0.4
CG17028 (GeneID 39741),DRSC10239,-0.1,-0.8
CG1965 (GeneID 40842),DRSC12577,-0.2,-0.2
thoc5 (GeneID 37810),DRSC04327,-0.2,-0.2
Boh2 (GeneID 34559),DRSC02777,-0.2,0
CG9759 (GeneID 41661),DRSC16558,-0.3,-0.2
CG15594 (GeneID 40768),DRSC12280,-0.3,-0.3
CG2258 (GeneID 31729),DRSC18222,0.2,0
rept (GeneID 40092),DRSC11388,3.2,5.1
CG31431 (GeneID 326138),DRSC14589,0.2,-0.1
mIF3 (GeneID 36335),DRSC06290,-0.3,-0.5
Pu (GeneID 37415),DRSC04645,-0.1,1.3
Cyp6t2Psi (GeneID 3772355),DRSC01840,0.9,0
EloA (GeneID 42749),DRSC16109,0.3,0.8
Dlc90F (GeneID 42199),DRSC16649,0,0.1
oaf (GeneID 33435),DRSC00831,-0.2,-0.7
CG12912 (GeneID 36075),DRSC06227,4.7,4.5
ana2 (GeneID 35878),DRSC05952,-0.2,0.2
CG5217 (GeneID 42311),DRSC15740,-0.3,0.2
dati (GeneID 43789),DRSC17128,-0.2,-0.3
dati (GeneID 43789),DRSC17153,-0.3,-0.9
ced-6 (GeneID 35971),DRSC07591,-0.4,-0.8
CG8888 (GeneID 36293),DRSC07294,-0.4,-0.5
CG8888 (GeneID 36293),DRSC07295,-0.5,-0.7
Srp72 (GeneID 42439),DRSC15800,-0.5,-1.3
Rpn10 (GeneID 40388),DRSC11876,0.3,0.6
RpS24 (GeneID 37589),DRSC04414,1.4,5.9
Pgant8 (GeneID 39715),DRSC10801,-0.1,-0.1
Rab8 (GeneID 40168),DRSC11261,-0.5,-0.7
Inx7 + cm,DRSC18753,-0.5,-0.8
Hipk (GeneID 38070),DRSC07885,0.3,0.4
Hipk (GeneID 38070),DRSC08507,0.3,0.4
ZnT86D (GeneID 41342),DRSC16091,-0.1,-0.1
CG31636 (GeneID 318865),DRSC02276,-0.2,-0.9
SerRS (GeneID 33518),DRSC00496,0,-0.7
CG11007 (GeneID 37249),DRSC06023,-0.1,-0.2
CG6900 (retired record) (GeneID 32868),DRSC20018,-0.2,0
rumpel (GeneID 31674),DRSC18436,-0.2,-0.4
CG14237 (GeneID 43194),DRSC14731,0.3,1.2
PGRP-SC1b (GeneID 35861),DRSC07215,-0.3,-0.3
zld (GeneID 32994),DRSC19486,-0.7,-0.5
CG4017 (GeneID 34296),DRSC02733,-0.3,-0.4
Jon65Aii (GeneID 38684),DRSC10665,-0.4,-0.6
CG7914 (GeneID 32907),DRSC20068,-0.5,-0.7
Task6 (GeneID 41671),DRSC16530,-0.3,-0.2
Dp1 (GeneID 37116),DRSC07403,-0.3,-0.4
dmrt11E (GeneID 32291),DRSC19715,-0.4,-1.1
CG13021 (GeneID 31323),DRSC17893,-0.1,0
Hel89B (GeneID 41943),DRSC16700,-0.1,-0.6
